Some entries share one result that the patent states for a list of compounds.
Conditions: human subjects, single 100 mg oral dose of racemic 1

Cc1ccccc1-n1c(Cn2cnc3c(N)ncnc32)nc2cccc(C)c2c1=O (single isomer, unassigned) [Compound 1(S), 2-((6-amino-9H-purin-9-yl)methyl)-5-methyl-3-o-tolylquinazolin-4(3H)-one]
time to maximum plasma concentration: ≤ 2 h
